Laboratory results published in PMC12335937.
These are yes or no findings as the source states them, for the method shown. Binding seen in cells or lysates may run through a third protein. Some binding calls cover weakened binding; strength is not graded here. For some assays here: Sequences can lack the tags named with a protein.

Amino acid sequences for entries named in this document (tags omitted).
UniProt Q86U44: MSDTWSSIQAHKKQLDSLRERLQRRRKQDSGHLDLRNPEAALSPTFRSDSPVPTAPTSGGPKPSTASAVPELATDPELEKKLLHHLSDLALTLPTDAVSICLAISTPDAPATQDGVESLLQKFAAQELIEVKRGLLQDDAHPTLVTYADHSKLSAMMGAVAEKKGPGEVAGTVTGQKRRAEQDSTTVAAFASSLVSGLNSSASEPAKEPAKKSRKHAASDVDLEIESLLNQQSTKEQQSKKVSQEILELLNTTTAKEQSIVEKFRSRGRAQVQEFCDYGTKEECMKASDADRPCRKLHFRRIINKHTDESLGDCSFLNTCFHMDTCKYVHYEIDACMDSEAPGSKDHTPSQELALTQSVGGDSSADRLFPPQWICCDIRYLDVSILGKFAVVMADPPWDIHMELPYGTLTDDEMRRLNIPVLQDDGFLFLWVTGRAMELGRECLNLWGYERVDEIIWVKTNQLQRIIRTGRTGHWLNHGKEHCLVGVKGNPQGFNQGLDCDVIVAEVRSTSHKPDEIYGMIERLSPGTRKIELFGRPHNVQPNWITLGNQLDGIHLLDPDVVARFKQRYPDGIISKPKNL

Columns and labels:
Flag-METTL3 = Flag-METTL3 (UniProt Q86U44); experiment: co-IP; GBC-SD cells transfected with Flag-METTL3 or Flag-METTL14; lysate in IP buffer, treated with or without RNase A (20 μg/mL); anti-METTL3 or anti-METTL14 antibody with Protein A/G magnetic beads, 4°C, 6 h; western blot
Flag-METTL14 = molecular target: T1, Flag-METTL14 (UniProt Q9HCE5); experiment: as above
T1 sequence: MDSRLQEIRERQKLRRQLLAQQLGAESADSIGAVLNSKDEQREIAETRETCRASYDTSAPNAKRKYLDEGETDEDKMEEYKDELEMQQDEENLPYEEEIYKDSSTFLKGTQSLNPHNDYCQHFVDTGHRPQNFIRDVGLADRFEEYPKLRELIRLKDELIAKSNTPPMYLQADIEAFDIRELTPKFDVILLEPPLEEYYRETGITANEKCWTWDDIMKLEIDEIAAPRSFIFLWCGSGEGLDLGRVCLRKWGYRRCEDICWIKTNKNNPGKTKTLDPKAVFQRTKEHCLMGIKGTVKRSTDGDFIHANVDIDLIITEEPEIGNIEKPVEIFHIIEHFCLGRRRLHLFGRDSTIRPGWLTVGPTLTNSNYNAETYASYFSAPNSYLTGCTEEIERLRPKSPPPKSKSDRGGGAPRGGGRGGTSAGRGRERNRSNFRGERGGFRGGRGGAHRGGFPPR

- binding (Flag-METTL3): binds
- binding (Flag-METTL14): binds
B1: DGCR8 (protein, UniProt Q8WYQ5 1-773)
chain: METDESPSPLPCGPAGEAVMESRARPFQALPREQSPPPPLQTSSGAEVMDVGSGGDGQSELPAEDPFNFYGASLLSKGSFSKGRLLIDPNCSGHSPRTARHAPAVRKFSPDLKLLKDVKISVSFTESCRSKDRKVLYTGAERDVRAECGLLLSPVSGDVHACPFGGSVGDGVGIGGESADKKDEENELDQEKRVEYAVLDELEDFTDNLELDEEGAGGFTAKAIVQRDRVDEEALNFPYEDDFDNDVDALLEEGLCAPKKRRTEEKYGGDSDHPSDGETSVQPMMTKIKTVLKSRGRPPTEPLPDGWIMTFHNSGVPVYLHRESRVVTWSRPYFLGTGSIRKHDPPLSSIPCLHYKKMKDNEEREQSSDLTPSGDVSPVKPLSRSAELEFPLDEPDSMGADPGPPDEKDPLGAEAAPGALGQVKAKVEVCKDESVDLEEFRSYLEKRFDFEQVTVKKFRTWAERRQFNREMKRKQAESERPILPANQKLITLSVQDAPTKKEFVINPNGKSEVCILHEYMQRVLKVRPVYNFFECENPSEPFGASVTIDGVTYGSGTASSKKLAKNKAARATLEILIPDFVKQTSEEKPKDSEELEYFNHISIEDSRVYELTSKAGLLSPYQILHECLKRNHGMGDTSIKFEVVPGKNQKSEYVMACGKHTVRGWCKNKRVGKQLASQKILQLLHPHVKNWGSLLRMYGRESSKMVKQETSDKSVIELQQYAKKNKPNLHILSKLQEEMKRLAEEREETRKKPKMSIVASAQPGGEPLCTVDV
